Measured values as given in paper doi:10.1101/2020.10.14.337444.
The exact form of at least one protein or probe is not confirmed. A weaker result is weaker than the reference pair of the same experiment. For some assays here: At least one verdict rests on a figure or table, not on a statement of the authors.

Amino acid sequences for entries named in this document (tags omitted).
UniProt P06733, whole entry: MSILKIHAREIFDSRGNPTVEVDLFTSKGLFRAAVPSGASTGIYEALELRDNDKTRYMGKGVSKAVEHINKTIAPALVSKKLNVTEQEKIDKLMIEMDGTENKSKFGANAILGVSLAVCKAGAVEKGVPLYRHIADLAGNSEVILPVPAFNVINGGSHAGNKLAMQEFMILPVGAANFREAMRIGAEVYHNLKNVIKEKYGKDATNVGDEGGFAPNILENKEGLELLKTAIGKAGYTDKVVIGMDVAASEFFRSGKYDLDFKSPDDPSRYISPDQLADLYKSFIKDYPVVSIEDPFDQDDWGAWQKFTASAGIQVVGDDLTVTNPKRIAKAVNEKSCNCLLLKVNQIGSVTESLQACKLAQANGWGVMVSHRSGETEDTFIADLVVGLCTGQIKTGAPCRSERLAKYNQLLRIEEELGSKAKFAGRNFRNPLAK
UniProt P06733, whole entry K343A: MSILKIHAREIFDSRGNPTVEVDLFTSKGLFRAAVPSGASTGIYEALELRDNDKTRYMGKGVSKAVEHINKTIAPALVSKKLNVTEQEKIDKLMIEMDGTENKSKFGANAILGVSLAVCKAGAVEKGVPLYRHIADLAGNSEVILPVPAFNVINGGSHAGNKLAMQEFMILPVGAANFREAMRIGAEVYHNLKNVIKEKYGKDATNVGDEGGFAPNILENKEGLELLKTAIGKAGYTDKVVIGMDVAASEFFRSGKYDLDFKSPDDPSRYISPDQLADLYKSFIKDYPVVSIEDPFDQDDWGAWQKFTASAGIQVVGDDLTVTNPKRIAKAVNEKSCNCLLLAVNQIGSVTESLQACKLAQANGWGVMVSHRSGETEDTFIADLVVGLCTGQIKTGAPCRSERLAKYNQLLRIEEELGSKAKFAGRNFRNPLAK

Legend:
ENO1 wt (Homo sapiens) [1] = molecular target: ENO1 wt (Homo sapiens) (UniProt P06733); assay: competition EMSA; details: Ki only in figure
[2] = molecular target: ENO1down K343A (Homo sapiens) (UniProt P06733); assay: competition EMSA; details: Ki only in figure
ENO1 wt (Homo sapiens) [3] = molecular target: ENO1 wt (Homo sapiens) (UniProt P06733); assay: EMSA

Sequence	binding result (ENO1 wt (Homo sapiens) [1]; probe FTH1 target)	binding result (ENO1 wt (Homo sapiens) [1]; probe PTP4A1 target)	further results
CCCUCCGUCACCUCUUCACCGCACCCUCGGACUGC [FTH1 target 35-mer]	binds	–	binding result ([2]; probe FTH1 target): binds more weakly
CCUCUUUUAUAAAAUAACCCGGUGAAGCAGCCGAG [PABPC1 target 35-mer]	–	–	binding result (ENO1 wt (Homo sapiens) [3]; 2-phosphoglycerate (competes)): binds more weakly; binding result (ENO1 wt (Homo sapiens) [3]; phosphoenolpyruvate (competes)): binds more weakly
CUGCAUGGUAGAGUCUGGUGCCCCCGCCGCCGCCU [PTP4A1 target 35-mer]	–	binds	binding result ([2]; probe PTP4A1 target): binds more weakly
GCGCCAGAACUACCACCAGGACUCAGAGGCCGCCA [FTH1 control 35-mer]	binds more weakly	–	–
GGUUCCAGCCCUAGAAGGAUUGCAUUUUACGAUUC [PTP4A1 control 35-mer]	–	binds more weakly	–
